# Whole data set: some 33,000 sequences, median “E-score (-0.5 to 0.5)” near -8e-05, cut for the highest 2% near 0.23. The list shows a part of the results.
# Molecular target: T1, Nrg2 (UniProt P38082)
# T1 sequence: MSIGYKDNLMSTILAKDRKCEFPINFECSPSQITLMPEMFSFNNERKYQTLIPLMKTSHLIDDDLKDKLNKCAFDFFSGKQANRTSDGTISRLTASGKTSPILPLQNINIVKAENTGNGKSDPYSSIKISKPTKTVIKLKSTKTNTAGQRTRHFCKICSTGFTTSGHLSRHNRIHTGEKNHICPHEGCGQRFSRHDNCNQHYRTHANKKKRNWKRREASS
# Assay: PBM E-score (8-mer binding enrichment) (E-score (-0.5 to 0.5)); higher = stronger / more preferred TF binding
# Conditions: protein concentration: 100 nM; construct: GST-full length
# Protocol: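 Universal 'all 10-mer' protein binding microarrays (Agilent AMADID 015681) probed with GST-tagged S. cerevisiae TFs (full-length or DBD) made by in vitro transcription/translation (PURExpress), about 100-200 nM. Bound TF was detected with fluorescent anti-GST. Each ungapped 8-mer (which stands for itself and its reverse complement) is scored by the PBM enrichment score (E-score), a modified Wilcoxon-Mann-Whitney statistic from -0.5 to +0.5, computed with the Universal PBM Analysis Suite. Scale: above 0.35 generally sequence-specific binding.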
row,Sequence,PBM E-score
1,AAGCAGAG,-0.00195
2,ACTCCTGC,0.0155
3,GCACTTTA,-0.0724
4,ACGCGACA,0.176
5,GCAGACCA,-0.125
6,ATCTCGGG,0.18
7,CATCTTAG,0.0135
8,GTTTACCA,0.0775
9,ATCGATAG,0.119
10,GAATAAAC,0.0301
11,ATGCCAAT,0.0107
12,AGCGTCCC,-0.116
13,ATCACCTC,-0.0043
14,GTAGGGGA,0.0006
15,ACGCGACT,-0.0738
16,ACGAGGAA,0.174
17,GCGTGGTA,-0.155
18,CCGTCGCA,-0.0175
19,CAATACGG,-0.0523
20,AGCAAGTG,-0.0161
21,CATTCGGG,0.146
22,ATTGGAGG,-0.149
23,CATGAAGG,0.0733
24,AATTTATA,0.201
25,GCGCGTCA,0.141

row,Sequence,PBM E-score
1,CCGTCTCA,-0.0533
2,ACTAGCTC,0.119
3,GCATCCAA,-0.0508
4,CGACTACC,-0.31
5,ATGCGACC,0.222
6,ATGGTTAA,-0.0657
7,CTTGTTAC,-0.0274
8,AAGGCCTT,-0.363
9,AGGGTACG,0.15
10,ATCCTAGA,-0.00185
11,ACAGTAGA,0.138
12,CAGTAGGG,-0.0149
13,AGTGTGAC,-8e-05
14,ACGTCCCC,-0.0434
15,ATAGTCGG,-0.122
16,GGCGCGGA,-0.0805
17,CAGTGCGA,-0.0277
18,CCGAAGCC,-0.159
19,AGCTGATG,0.156
20,CCGGACTC,0.00878
21,GCCCAACA,-0.139
22,AATCCCCT,0.0153
23,AATTAGTC,0.107
24,CAGTACAG,0.142
25,CAGGCTTC,0.0308

row,Sequence,PBM E-score
1,GATTATAA,0.207
2,ACTGGTCA,0.0341
3,ATTGAGAG,0.0708
4,AGCGGTAC,-0.0689
5,AAAGGATA,0.0589
6,AAGGGCAT,-0.139
7,GTCTCAAC,0.00205
8,AATCACAA,-0.0115
9,AGTCCGAT,-0.0623
10,CGGCTCAC,-0.0136
11,AATGGAAA,0.105
12,CGCGAGCC,0.0282
13,CCGGGGAA,-0.0346
14,GCAGAGAA,0.0344
15,GCCGGTCC,-0.239
16,TGCCTTAA,-0.131
17,CTACTACC,0.0262
18,ACACGTAA,-0.178
19,GGTTAAAA,-0.104
20,AACCCGCC,0.00993
21,GGGAGACC,-0.25
22,GTGATGTA,0.118
23,GTACAGAA,0.003
24,CTCACGCC,0.0298
25,CACACTGA,-0.0328

row,Sequence,PBM E-score
1,GTCGCCCA,-0.131
2,ATATAGGG,0.012
3,CGTGGGTA,-0.174
4,CTTGTCAC,-0.00902
5,AGCATGAC,0.0515
6,AGATGTGG,-0.0882
7,CTGAGTCC,-0.0223
8,GCAAGTAC,-0.0477
9,AATCGATC,0.0541
10,AAGACAAG,-0.0376
11,GAAAGGGC,-0.15
12,TTCTCCAA,0.017
13,CGCTAACG,-0.0471
14,GCAAGGCC,-0.0343
15,CCTAAACA,-0.115
16,ATATCCAA,0.0981
17,TAGTCTAA,-0.122
18,AATTGTTC,0.153
19,CCGAGCGC,0.00807
20,GAGGTAGC,-0.113
21,CGGTCACA,-0.0641
22,ACAAAACG,0.209
23,AATAGTGT,0.149
24,ACCGGTCC,-0.201
25,CCTCTGTA,-0.283

row,Sequence,PBM E-score
1,GACTAACA,-0.0342
2,AAGTCGTG,-0.06
3,AGCAGACC,0.135
4,GGAGGGGA,-0.00585
5,GCCAACAA,-0.121
6,CCAGCAAG,0.0352
7,TGCGGTAA,-0.0335
8,CACGGCCA,-0.0483
9,CCTATGCC,-0.0984
10,CGGGGCAG,-0.0955
11,CCGACGAG,-0.119
12,CTTGAATC,-0.068
13,CTGGAGGA,-0.171
14,CACCCAAG,-0.25
15,GAGAACTA,0.113
16,TCATAGCA,-0.0234
17,CAAGATCC,0.149
18,TACCCCCA,-0.159
19,CGTGCTGA,0.0341
20,AGCCTTAC,-0.296
21,AAACGACG,0.0872
22,GCCGGGAA,-0.11
23,AACCTAGG,0.0725
24,CCGAGGGC,0.0206
25,GATCCTGA,0.122

row,Sequence,PBM E-score
1,CAGCATCC,-0.053
2,GCGCCCAC,0.131
3,AGAGGGCA,-0.00675
4,ACGAAACT,0.0216
5,CGCAGCGC,-0.0643
6,ATATACGA,0.00028
7,ATTCGTCC,0.27
8,AAAGTGAG,0.113
9,ACATGTCT,0.00802
10,ATAGCGAC,0.0025
11,AAGCAACG,0.161
12,ATGACTGA,-0.0496
13,AACCTAGA,-0.0251
14,GAACCGCA,0.104
15,AATGCTAC,0.162
16,CTAGTGGA,-0.111
17,GTCTCTTA,0.051
18,CGCATTCA,0.0356
19,CCGTTCTA,0.102
20,CCGCAACA,0.187
21,CGCATCAG,0.135
22,ATATCACC,0.136
23,ACGGGTCG,0.196
24,TGAAGGAA,0.113
25,CGCGCCAA,0.0388

row,Sequence,PBM E-score
1,ATTTAATG,0.211
2,AGAGCCGC,0.0823
3,ACGAAGCT,-0.0491
4,ATGTAGCC,-0.158
5,ACATTGGA,-0.202
6,CCGGTTAC,-0.175
7,CCGAGCCG,-0.0216
8,ATCAACCA,0.0788
9,GGTCCTAC,0.00056
10,ATGATCAA,0.121
11,ATTGCCCG,-0.0391
12,ATTCTTGA,0.162
13,TATTGAAA,0.198
14,GCTGATCA,0.0236
15,CATGGCAG,-0.00112
16,AGCGCTGA,0.016
17,GATTCGTA,0.137
18,CTGTCCTA,-0.0917
19,AACAACCC,0.218
20,ATTCGTGC,0.202
21,CATCGAAG,0.0469
22,AATTCTGG,-0.0933
